# Measurements taken from PubChem BioAssay (NCATS).
# The other results are listed elsewhere or left out. Further columns of the screen follow, without active or inactive calls. Most of these compounds were active or inconclusive in the main read-out, so they are no random draw. The note in brackets gives the kind of curve behind each potency; many fits are weak.
# Assay: qHTS for identification of novel therapeutic agents for treatment of microphthalmiaassociated transcription factor (MiT) renal cell carcinoma (RCC) (AID 1963991)
# Conditions: CellTiter-Glo, 48 h; for z-score: stronger effect = lower value
# Summary of the method: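 Curves over 11 concentrations were fitted to CellTiter-Glo luminescence, scaled between empty wells (0%) and DMSO (100%) viability. Cells were UOK109, UOK124 and UOK145 TFE3-fusion RCC lines at 500/well, exposed 48 hours at 37 C.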
# [1] = TFE3-RCC viability, measured here: UOK124 cell viability
# [2] = TFE3-RCC viability, measured here: UOK145 cell viability
# [3] = TFE3-RCC UOK109 viability, measured here: UOK109 Z-AUC
# [4] = TFE3-RCC viability, measured here: UOK124 Z-AUC
# [5] = TFE3-RCC viability, measured here: UOK145 Z-AUC
Structure (SMILES),AC50 [1],AC50 [2],z-score [3],z-score [4],z-score [5]
O=C1NC(=O)[C@@H](c2cn3c4c(cccc24)CCC3)[C@H]1c1c[nH]c2ccccc12,"1870 nM [falling, partial curve]","469 nM [falling, full curve]",,,
CS(=O)(=O)c1ccc([C@@H](O)[C@@H](CO)NC(=O)C(Cl)Cl)cc1,,,1.77,0.107,1.06
FC(F)(F)c1ccc(C=Cc2nc(COc3ccc(CCCCn4ccnn4)cc3)co2)cc1,"5.26 nM [falling, full curve]","9.35 nM [falling, full curve]",,,
O=C(Nc1ccccc1)Nc1ccc(-c2ccc(C(=O)[C@H]3CCC[C@H]3C(=O)O)cc2)cc1,,,1.27,0.675,0.601
CCC(=O)NCC[C@@H]1CCc2ccc3c(c21)CCO3,,,0.687,0.58,0.825
CS[C@H]1SC[C@@H]2C(=O)N(C)[C@H](C(C)C)C(=O)OC[C@H](NC(=O)c3cnc4ccccc4n3)C(=O)N[C@H](C)C(=O)N(C)[C@@H]1C(=O)N(C)[C@H](C(C)C)C(=O)OC[C@H](NC(=O)c1cnc3ccccc3n1)C(=O)N[C@H](C)C(=O)N2C,"8.33 nM [falling, full curve]","8.33 nM [falling, full curve]",,,
COc1cccc2c1C(=O)c1c(O)c3c(c(O)c1C2=O)C[C@@](O)(C(C)=O)C[C@H]3O[C@H]1C[C@H](N)[C@H](O)[C@H](C)O1,"132 nM [falling, full curve]","209 nM [falling, full curve]",,,
Cc1c(CCOc2ccc(C(=O)O)cc2)c2cc(Cl)ccc2n1C(c1ccccc1)c1ccccc1,,,0.41,-0.0138,0.56
COc1ccc(-c2ccc3c(N4CCOC[C@H]4C)nc(N4CCOC[C@H]4C)nc3n2)cc1CO,"37.2 nM [falling, full curve]","37.2 nM [falling, full curve]",,,
O=C(C[C@@H]1CC=CCCC(=O)O[C@H](c2ccccc2)CNC1=O)NCc1ccc(Cl)cc1,,,-0.788,0.165,0.508
O=C(CCN1CCN(C(=O)OCc2cc(Cl)cc(Cl)c2)CC1)c1ccc2[nH]c(=O)oc2c1,,,0.799,0.705,0.515
COc1cc2c(cc1OC)CN(CCc1ccc(NC(=O)c3cc(OC)c(OC)cc3NC(=O)c3cnc4ccccc4c3)cc1)CC2,,"23500 nM [falling, partial curve, poor fit]",0.356,0.783,0.221
COc1ccc(-c2coc3cc(O)cc(O)c3c2=O)cc1,,,0.208,0.596,0.651
Cn1cc(-c2ccc3nnc(C(F)(F)c4ccc5ncccc5c4)n3n2)cn1,,,0.2,0.37,0.722
C#C[C@]1(O)CC[C@H]2[C@H]3CCc4cc(OC)ccc4[C@H]3CC[C@@]21C,,,0.712,0.623,0.171
Nc1ncnc2ccccc12,,,0.41,0.553,0.149
COc1ccc(CCC(=O)Nc2nc3ccc(Cl)cc3s2)cc1OC,,,0.0691,0.308,-0.0377
Nc1nc(F)nc2c1ncn2[C@@H]1O[C@H](COP(=O)(O)O)[C@@H](O)[C@H]1O,,"13200 nM [falling, partial curve]",0.417,0.656,0.192
Cc1cn2cc(C(=O)N(C)CCO)cc(N[C@@H]3CCOc4cccc(C)c43)c2n1,,,1.64,0.311,0.543
CN(C)c1nc(N(C)C)nc(N(C)C)n1,,,-0.0767,0.0738,-0.00551
O=C(O)CCC=CCC[C@@H]1[C@H](N2CCCCC2)[C@@H](O)C[C@@H]1OCc1ccc(-c2ccccc2)cc1,,,0.464,0.412,0.585
CN(C)CC[C@H](c1ccc(Cl)cc1)c1ccccn1,,,0.801,0.02,-0.173
Nc1nccc(-c2ccc3noc(-c4ccc(Cl)cc4)c3c2)n1,,"26400 nM [falling, single point]",0.512,0.588,0.599
NC(=O)c1ccc(N(C(N)=O)c2c(F)cccc2F)nc1-c1ccc(F)cc1F,,,0.488,1.91,1.15
CC(=O)O[C@@]12CO[C@H]1C[C@H](O)[C@@]1(C)C(=O)[C@H](O)C3=C(C)[C@@H](OC(=O)C(O)[C@@H](NC(=O)OC(C)(C)C)c4ccccc4)C[C@@](O)([C@@H](OC(=O)c4ccccc4)[C@@H]21)C3(C)C (stereo partly drawn),,,-2.49,-0.587,-1.64

# Shown bar-delimited: part of the list above
Structure (SMILES) | AC50 [1] | AC50 [2] | z-score [3] | z-score [4] | z-score [5]
C#C[C@]1(O)CC[C@H]2[C@H]3CCc4cc(OC)ccc4[C@H]3CC[C@@]21C |  |  | 0.712 | 0.623 | 0.171
Nc1ncnc2ccccc12 |  |  | 0.41 | 0.553 | 0.149
